# Measurements as given in the supplement of paper PMC8007513.
# The other results are listed elsewhere or left out. Most values come without repeats; read them as rough.
# Tested on: Saccharomyces cerevisiae BY4743
# Experiment: growth (OD600) with compound + IPBC relative to untreated control; higher = less growth inhibition
# Conditions: compound concentration: 133 uM; IPBC concentration: 0.5 ug/ml; 20 h
# Description: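 NMCCC compounds (133 uM) combined with IPBC (0.5 ug/ml) against Saccharomyces cerevisiae BY4743 in YPD, 96-well plates. Growth was read as OD600 at 20 h and expressed as % of the untreated control. Single pass.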
row,Structure (SMILES),growth [%]
1,CCc1noc(CSc2nnc3ccc(S(=O)(=O)N(CC)CC)cn23)n1 + CCCCNC(=O)OCC#CI [3-iodo-2-propynyl butylcarbamate (IPBC)],109
2,Cc1cc(NS(=O)(=O)c2c(C)nn(C)c2Cl)ccc1N1CCCC1=O + CCCCNC(=O)OCC#CI [3-iodo-2-propynyl butylcarbamate (IPBC)],109
3,CC(Sc1nc(C(C)C)n(-c2ccccc2)n1)C(=O)N1CCNC1=O (stereo unspecified) + CCCCNC(=O)OCC#CI [3-iodo-2-propynyl butylcarbamate (IPBC)],98.7
4,O=C(Cc1cn2ccccc2n1)Nc1cccc(F)c1 + CCCCNC(=O)OCC#CI [3-iodo-2-propynyl butylcarbamate (IPBC)],107
5,CCS\C1=N\C2=CC=CC=C2C(=O)N1C3CCOC(C)(C)C3 (stereo unspecified) + CCCCNC(=O)OCC#CI [3-iodo-2-propynyl butylcarbamate (IPBC)],100
6,Cc1c(C(=O)NC(C)CCc2ccccc2)oc2c1C(=O)CCC2 (stereo unspecified) + CCCCNC(=O)OCC#CI [3-iodo-2-propynyl butylcarbamate (IPBC)],99.3
7,COC(=O)CNC(=O)c1cc2ccccc2cc1OCc1c(C)noc1C + CCCCNC(=O)OCC#CI [3-iodo-2-propynyl butylcarbamate (IPBC)],98.6
8,CC(C)C\C1=N\N(C(=O)C2=CC=CO2)C(O)(C1)C(F)(F)F (stereo unspecified) + CCCCNC(=O)OCC#CI [3-iodo-2-propynyl butylcarbamate (IPBC)],98.2
9,CCS(=O)(=O)c1ccc2oc(SCC(=O)N3CC(C)OC(C)C3)nc2c1 (stereo unspecified) + CCCCNC(=O)OCC#CI [3-iodo-2-propynyl butylcarbamate (IPBC)],87.6
10,CN(Cc1ccc(Cl)s1)C(=O)CSc1nnc(-c2ccc[nH]2)o1 + CCCCNC(=O)OCC#CI [3-iodo-2-propynyl butylcarbamate (IPBC)],100
11,CC(C)(C)Nc1nnc(SCc2nc(Cc3ccccc3)no2)s1 + CCCCNC(=O)OCC#CI [3-iodo-2-propynyl butylcarbamate (IPBC)],107
12,CCC(C(=O)Nc1nnc(CCc2ccc(OC)cc2)s1)c1ccccc1 (stereo unspecified) + CCCCNC(=O)OCC#CI [3-iodo-2-propynyl butylcarbamate (IPBC)],83.4
13,Cc1noc(C)c1S(=O)(=O)NCCC(=O)N(C)Cc1ccc2c(c1)OCCO2 + CCCCNC(=O)OCC#CI [3-iodo-2-propynyl butylcarbamate (IPBC)],104
14,Cc1nc(C)c(C(=O)OCc2ccc(C#N)cc2)s1 + CCCCNC(=O)OCC#CI [3-iodo-2-propynyl butylcarbamate (IPBC)],88.3
15,CC(Oc1ccc(Cl)cc1C(N)=O)C(=O)Nc1ccc(C#N)cc1 (stereo unspecified) + CCCCNC(=O)OCC#CI [3-iodo-2-propynyl butylcarbamate (IPBC)],105
16,COc1cccc(C2/C(=C(\O)OC(C)(C)C)C(C)=Nc3nnnn32)c1 (stereo unspecified) + CCCCNC(=O)OCC#CI [3-iodo-2-propynyl butylcarbamate (IPBC)],104

# In another format: entries from further up
row | Structure (SMILES) | growth [%]
1 | CCc1noc(CSc2nnc3ccc(S(=O)(=O)N(CC)CC)cn23)n1 + CCCCNC(=O)OCC#CI [3-iodo-2-propynyl butylcarbamate (IPBC)] | 109
2 | Cc1cc(NS(=O)(=O)c2c(C)nn(C)c2Cl)ccc1N1CCCC1=O + CCCCNC(=O)OCC#CI [3-iodo-2-propynyl butylcarbamate (IPBC)] | 109
3 | CC(Sc1nc(C(C)C)n(-c2ccccc2)n1)C(=O)N1CCNC1=O (stereo unspecified) + CCCCNC(=O)OCC#CI [3-iodo-2-propynyl butylcarbamate (IPBC)] | 98.7
5 | CCS\C1=N\C2=CC=CC=C2C(=O)N1C3CCOC(C)(C)C3 (stereo unspecified) + CCCCNC(=O)OCC#CI [3-iodo-2-propynyl butylcarbamate (IPBC)] | 100
7 | COC(=O)CNC(=O)c1cc2ccccc2cc1OCc1c(C)noc1C + CCCCNC(=O)OCC#CI [3-iodo-2-propynyl butylcarbamate (IPBC)] | 98.6
9 | CCS(=O)(=O)c1ccc2oc(SCC(=O)N3CC(C)OC(C)C3)nc2c1 (stereo unspecified) + CCCCNC(=O)OCC#CI [3-iodo-2-propynyl butylcarbamate (IPBC)] | 87.6
11 | CC(C)(C)Nc1nnc(SCc2nc(Cc3ccccc3)no2)s1 + CCCCNC(=O)OCC#CI [3-iodo-2-propynyl butylcarbamate (IPBC)] | 107
13 | Cc1noc(C)c1S(=O)(=O)NCCC(=O)N(C)Cc1ccc2c(c1)OCCO2 + CCCCNC(=O)OCC#CI [3-iodo-2-propynyl butylcarbamate (IPBC)] | 104
14 | Cc1nc(C)c(C(=O)OCc2ccc(C#N)cc2)s1 + CCCCNC(=O)OCC#CI [3-iodo-2-propynyl butylcarbamate (IPBC)] | 88.3

# Remaining list, next part.

row,Structure (SMILES),growth [%]
1,CC1=C(N[S](=O)(=O)C/2=C(C)/N=C\3S\C=C/N3C2=O)C(=CC=C1)C + CCCCNC(=O)OCC#CI [3-iodo-2-propynyl butylcarbamate (IPBC)],104
2,O=C(NCc1cc(-c2ccccc2)no1)C(=O)Nc1cc(F)cc(F)c1 + CCCCNC(=O)OCC#CI [3-iodo-2-propynyl butylcarbamate (IPBC)],95.8
3,Cc1ccc(-n2nc(C)c(C(=O)NCC(=O)NCc3ccco3)n2)c(C)c1 + CCCCNC(=O)OCC#CI [3-iodo-2-propynyl butylcarbamate (IPBC)],104
4,O=C1O\C(=N/N1CCC#N)C2=CC=CS2 + CCCCNC(=O)OCC#CI [3-iodo-2-propynyl butylcarbamate (IPBC)],93.6
5,Cc1cc(C)c2c(N)c(-c3ccccn3)sc2n1 + CCCCNC(=O)OCC#CI [3-iodo-2-propynyl butylcarbamate (IPBC)],81.4
6,CCOC(=O)c1cc(CNC2(CN3CCOCC3)CCCC2)on1 + CCCCNC(=O)OCC#CI [3-iodo-2-propynyl butylcarbamate (IPBC)],111
7,Cc1cc(Cl)ccc1Nc1nc(N)c(C(=O)C(C)C)s1 + CCCCNC(=O)OCC#CI [3-iodo-2-propynyl butylcarbamate (IPBC)],3.81
8,CCOC(=O)c1c(S(=O)(=O)Nc2ccc(C)cn2)c(C)n(C)c1C + CCCCNC(=O)OCC#CI [3-iodo-2-propynyl butylcarbamate (IPBC)],106
9,CC(C)CCC(C)NC(=O)CSc1nnc(-c2ccc(F)c(F)c2)c(O)n1 (stereo unspecified) + CCCCNC(=O)OCC#CI [3-iodo-2-propynyl butylcarbamate (IPBC)],82.3
10,NCCc1c(-c2ccccc2)nn(-c2ccccc2)c1O + CCCCNC(=O)OCC#CI [3-iodo-2-propynyl butylcarbamate (IPBC)],97.5
11,CC(=O)c1c(C)[nH]c(C(=O)COC(=O)c2cccc(OC(F)F)c2)c1C + CCCCNC(=O)OCC#CI [3-iodo-2-propynyl butylcarbamate (IPBC)],99.8
12,Cc1nc(SCC(=O)NC(C)CCc2ccccc2)c2ccccc2n1 (stereo unspecified) + CCCCNC(=O)OCC#CI [3-iodo-2-propynyl butylcarbamate (IPBC)],84.3
13,CN(C)CCCN(C(=O)c1ccc(Br)s1)c1nc2ccc(F)cc2s1 + CCCCNC(=O)OCC#CI [3-iodo-2-propynyl butylcarbamate (IPBC)],4.69
14,COc1cc(OC)c(NC(=O)NC(C(=O)N2CCc3ccccc32)C(C)C)cc1Cl (stereo unspecified) + CCCCNC(=O)OCC#CI [3-iodo-2-propynyl butylcarbamate (IPBC)],93.6
15,CO\C1=C\N(CC(=O)NCC2=CC=C(F)C=C2)\C(=C/C1=O)CN3CCOCC3 + CCCCNC(=O)OCC#CI [3-iodo-2-propynyl butylcarbamate (IPBC)],74.1
